# Test results: publication doi:10.1101/2021.10.11.463901
# Sequences of proteins named here, by UniProt entry; tags and fusion partners are left off.
# UniProt Q86U44, whole entry: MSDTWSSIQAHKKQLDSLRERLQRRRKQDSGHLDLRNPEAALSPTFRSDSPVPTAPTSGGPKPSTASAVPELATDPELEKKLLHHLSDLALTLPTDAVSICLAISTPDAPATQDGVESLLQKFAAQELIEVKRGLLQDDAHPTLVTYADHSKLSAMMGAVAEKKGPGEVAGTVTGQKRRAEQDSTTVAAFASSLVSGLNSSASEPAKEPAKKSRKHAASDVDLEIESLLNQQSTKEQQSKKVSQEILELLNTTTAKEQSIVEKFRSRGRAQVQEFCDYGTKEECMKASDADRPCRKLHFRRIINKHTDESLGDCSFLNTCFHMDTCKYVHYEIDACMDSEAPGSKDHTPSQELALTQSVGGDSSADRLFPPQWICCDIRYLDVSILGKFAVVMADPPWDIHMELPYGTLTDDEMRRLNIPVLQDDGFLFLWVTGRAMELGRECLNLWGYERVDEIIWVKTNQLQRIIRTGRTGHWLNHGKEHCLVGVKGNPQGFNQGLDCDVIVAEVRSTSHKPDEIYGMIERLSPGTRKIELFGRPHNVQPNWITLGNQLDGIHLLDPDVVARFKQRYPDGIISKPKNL
# No constants are given. Whether binding was seen depends on the method and setting. In cells and extracts the contact can be indirect. Some entries that bind do so weakly or less than the wild type. Sequences can lack the tags named with a protein.
# Assays:
# [1] = target: T1, Flag-tagged SRSF7 (serine/arginine-rich splicing factor 7), full length (UniProt Q16629); test: co-IP
# T1 sequence: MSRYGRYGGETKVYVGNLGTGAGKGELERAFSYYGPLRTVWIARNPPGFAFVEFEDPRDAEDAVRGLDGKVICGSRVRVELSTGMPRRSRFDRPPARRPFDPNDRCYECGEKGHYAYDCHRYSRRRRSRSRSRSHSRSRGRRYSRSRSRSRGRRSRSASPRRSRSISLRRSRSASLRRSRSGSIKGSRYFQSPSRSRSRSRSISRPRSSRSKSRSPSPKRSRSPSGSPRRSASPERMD
# [2] = target: T2, Flag-tagged SRSF7 (in 293T cells) (UniProt Q16629); test: co-IP
# T2 sequence: T1 sequence
binding [1],binding [2],Substance
binds,–,HA-tagged METTL3 (from UniProt Q86U44 1-580)
–,binds,endogenous METTL3 (293T cells) (from UniProt Q86U44 1-580)
binds,–,endogenous METTL3 (U87MG cells) (from UniProt Q86U44 1-580)
